Structures can show the parent of a compound that is named as a salt. Some of the results follow. This data set is noisy: repeats of one test often differ as much as different tests do.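 Cells: ReNCell VM human fetal ventral-midbrain neural progenitors, differentiated mitogen-free. Blinded raters compared doublecortin-stained (early neurons) or tyrosine hydroxylase-stained (dopaminergic neurons) images with untreated wells, where 0 means no change. After repeats and both raters were averaged, compounds scoring 2 or above became hits for retesting.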 Where a SMILES comes first, the peptide text is derived from it.

Results on 35 compounds are retold here after the supplement of paper PMC4635364.

For assay [1], the system named is ReNCell VM. As to the kind of experiment: neuronal differentiation score (DCX+ cell fraction vs untreated, manual image score) (score (-3 to 3)); higher = more neuronal differentiation. Particulars: 2 uM, 2 weeks.
Assay [2] relates to ReNCell VM. In words: dopaminergic neuron differentiation score (TH+ cell fraction vs untreated, manual image score) (score (0 to 3)); higher = more TH+ dopaminergic neuron differentiation. The conditions noted are these: 2 uM, 4 weeks, BDNF 10 ng/ml + GDNF 10 ng/ml.

Regarding `COc1ccc2c(OC)c3ccoc3nc2c1OC` [Skimmianine], in the assay on ReNCell VM [1] (library: Phytochemical), the neuronal differentiation score was inactive: 0. Besides, the “dopaminergic neuron differentiation score” value in the assay with ReNCell VM [2] (library: Phytochemical) was inactive: 0.
Turning to `Cc1nc2sccn2c(=O)c1CCN1CCC(=C(c2ccccc2)c2ccc(F)cc2)CC1`, the neuronal differentiation score in the assay with ReNCell VM [1] (library: Tocriscreen) is inactive: 0. Besides, the “dopaminergic neuron differentiation score” value in the assay with ReNCell VM [2] (library: Tocriscreen) was inactive: 0.
`O=C(O)[C@@H](O)[C@H](O)[C@H](O)[C@@H](O)C(=O)O`: in the assay with ReNCell VM [1] (library: Spectrum), the neuronal differentiation score was inactive: 0. In addition, in the assay on ReNCell VM [2] (library: Spectrum), the “dopaminergic neuron differentiation score” value was inactive: 0.
Take `CC(C)C[C@H](N)C(=O)N[C@@H](C)C(=O)O` (H-Leu-Ala-OH): the neuronal differentiation score in the assay on ReNCell VM [1] (library: Spectrum) was inactive: 0. For the same compound, in the assay on ReNCell VM [2] (library: Spectrum), the “dopaminergic neuron differentiation score” value was inactive: 0.
On to `CNCCCC12CCC(c3ccccc31)c1ccccc12`, for which, in the assay with ReNCell VM [1] (library: Spectrum), the neuronal differentiation score is inactive: 0. Moreover, the “dopaminergic neuron differentiation score” value in the assay on ReNCell VM [2] (library: Spectrum) was inactive: 0.
For the compound `NS(=O)(=O)c1cc(Cl)c(Cl)c(S(N)(=O)=O)c1` [Dichlorphenamide], the neuronal differentiation score in the assay with ReNCell VM [1] (library: Prestwick) is inactive: 0. Also, the “dopaminergic neuron differentiation score” value in the assay with ReNCell VM [2] (library: Prestwick) was inactive: 0.
`Oc1ccc(-c2nc3cc(O)cc(Br)c3o2)cc1`: the neuronal differentiation score in the assay on ReNCell VM [1] (library: Tocriscreen) was inactive: 0. In addition, the “dopaminergic neuron differentiation score” value with ReNCell VM [2] (library: Tocriscreen) is inactive: 0.
As for `CC(C)NC[C@H](O)COc1cccc2[nH]ccc12` [(S)-(-)-Pindolol], the neuronal differentiation score with ReNCell VM [1] (library: Tocriscreen) was inactive: 0. In addition, the “dopaminergic neuron differentiation score” value in the assay with ReNCell VM [2] (library: Tocriscreen) is inactive: 0.
As for `COc1c2ccoc2cc2oc(C)cc(=O)c12` [visnagin], the neuronal differentiation score in the assay on ReNCell VM [1] (library: Natural) is inactive: 0. Moreover, the “dopaminergic neuron differentiation score” value with ReNCell VM [2] (library: Natural) was inactive: 0.
In the case of `CN1C(=O)N(C)C2=NNC=NC2(O)C1=O` (stereo not given), the neuronal differentiation score in the assay with ReNCell VM [1] (library: Natural) was inactive: 0. Besides, in the assay on ReNCell VM [2] (library: Natural), the “dopaminergic neuron differentiation score” value was inactive: 0.
Take `Cc1[nH]ccc2c1[nH]c1cc(=O)ccc12` [Harmol hydrochloride monohydrate]: in the assay on ReNCell VM [1] (library: Phytochemical), the neuronal differentiation score is inactive: 0. Moreover, in the assay on ReNCell VM [2] (library: Phytochemical), the “dopaminergic neuron differentiation score” value is inactive: 0.
On to `O=C(O)CCc1ccccc1` [Hydrocinnamic acid], for which, in the assay with ReNCell VM [1] (library: Phytochemical), the neuronal differentiation score was inactive: 0. In addition, the “dopaminergic neuron differentiation score” value with ReNCell VM [2] (library: Phytochemical) was inactive: 0.
Consider `C=C1CC[C@@H]2[C@](C)(CO)[C@H](O)CC[C@@]2(C)[C@@H]1C/C=C1/C(=O)OC[C@H]1O` [andrographolide], for which, in the assay with ReNCell VM [1] (library: Natural), the neuronal differentiation score was inactive: 0. In addition, the “dopaminergic neuron differentiation score” value in the assay with ReNCell VM [2] (library: Natural) was inactive: 0.
For `CC(O)Cn1cnc2c1c(=O)n(C)c(=O)n2C` (stereo not given) [Proxyphylline], the neuronal differentiation score with ReNCell VM [1] (library: Phytochemical) was inactive: 0. Also, the “dopaminergic neuron differentiation score” value with ReNCell VM [2] (library: Phytochemical) is inactive: 0.
As to `O=C1Nc2ccccc2C1=O` [Isatine], in the assay on ReNCell VM [1] (library: Phytochemical), the neuronal differentiation score was inactive: 0. Besides, the “dopaminergic neuron differentiation score” value with ReNCell VM [2] (library: Phytochemical) was inactive: 0.
As for `CN(CCOc1ccc(CC2SC(=O)NC2=O)cc1)c1ccccn1` (stereo not given) [Rosiglitazone Hydrochloride], the neuronal differentiation score in the assay on ReNCell VM [1] (library: Prestwick) is inactive: 0. Further, the “dopaminergic neuron differentiation score” value in the assay on ReNCell VM [2] (library: Prestwick) is inactive: 0.
Take `CCCn1c(=O)c2[nH]c(-c3ccccc3)nc2n(CCC)c1=O` [1,3-Dipropyl-8-phenylxanthine]: the neuronal differentiation score with ReNCell VM [1] (library: Tocriscreen) is inactive: 0. For the same compound, in the assay on ReNCell VM [2] (library: Tocriscreen), the “dopaminergic neuron differentiation score” value was inactive: 0.
Take `CC(C)NCC(O)c1ccc(O)c(O)c1` (stereo not given): the neuronal differentiation score in the assay with ReNCell VM [1] (library: Spectrum) is active: 3. Moreover, the “dopaminergic neuron differentiation score” value in the assay with ReNCell VM [2] (library: Spectrum) is inactive: 0.
Consider `c1ccc([C@H]2CN3CCSC3=N2)cc1` [Levamisole hydrochloride], for which the neuronal differentiation score with ReNCell VM [1] (library: Prestwick) was inactive: 0. In addition, the “dopaminergic neuron differentiation score” value in the assay on ReNCell VM [2] (library: Prestwick) is inactive: 0.
Regarding `CC[C@H](C)C(=O)O[C@H]1CCC=C2C=C[C@H](C)[C@H](CC[C@@H]3C[C@@H](O)CC(=O)O3)[C@H]21`, the neuronal differentiation score in the assay on ReNCell VM [1] (library: Spectrum) was active: 2. In the assay on ReNCell VM [2] (library: Spectrum), the “dopaminergic neuron differentiation score” value was inactive: 0.
As for `Clc1ccc(CSC(Cn2ccnc2)c2ccc(Cl)cc2Cl)cc1` (stereo not given) [Sulconazole nitrate], the neuronal differentiation score in the assay on ReNCell VM [1] (library: Prestwick) is inactive: 0. In addition, the “dopaminergic neuron differentiation score” value in the assay on ReNCell VM [2] (library: Prestwick) was active: 3.
Turning to `NCC[C@H](O)C(=O)N[C@@H]1C[C@H](N)[C@@H](O[C@H]2O[C@H](CN)[C@@H](O)[C@H](O)[C@H]2O)[C@H](O)[C@H]1O[C@H]1O[C@H](CO)[C@@H](O)[C@H](N)[C@H]1O` [Amikacin hydrate], in the assay with ReNCell VM [1] (library: Prestwick), the neuronal differentiation score was inactive: 0. In the assay with ReNCell VM [2] (library: Prestwick), the “dopaminergic neuron differentiation score” value is inactive: 0.
As to `COc1ccc(-c2coc3c(O)c(OC)ccc3c2=O)cc1`, in the assay with ReNCell VM [1] (library: Spectrum), the neuronal differentiation score is inactive: 0. Also, the “dopaminergic neuron differentiation score” value in the assay on ReNCell VM [2] (library: Spectrum) was inactive: 0.
For `CCCCCCCCCCCCCCCCCC(=O)OC(CC(=O)O)C[N+](C)(C)C` (racemic) [DL-Stearoylcarnitine chloride], the neuronal differentiation score with ReNCell VM [1] (library: LOPAC) was inactive: 0. For the same compound, in the assay on ReNCell VM [2] (library: LOPAC), the “dopaminergic neuron differentiation score” value is inactive: 0.
In the case of `CC(C)C(C)C=CC(C)C1CCC2C3=CC=C4CC(O)CCC4(C)C3CCC21C` (stereo not given) [Ergosterine], the neuronal differentiation score in the assay with ReNCell VM [1] (library: Phytochemical) is inactive: 0. For the same compound, the “dopaminergic neuron differentiation score” value with ReNCell VM [2] (library: Phytochemical) was inactive: 0.
`NCCC[C@H](N)C(=O)O`: the neuronal differentiation score with ReNCell VM [1] (library: Spectrum) is inactive: 0. Further, the “dopaminergic neuron differentiation score” value in the assay with ReNCell VM [2] (library: Spectrum) is inactive: 0.
With `c1ccc(CN2CCC3(CCCc4ccccc43)CC2)cc1` [L-687,384 hydrochloride], the neuronal differentiation score with ReNCell VM [1] (library: LOPAC) was inactive: 0. Further, in the assay on ReNCell VM [2] (library: LOPAC), the “dopaminergic neuron differentiation score” value is inactive: 0.
Take `Oc1cccc2[nH]ccc12`: the neuronal differentiation score in the assay on ReNCell VM [1] (library: Spectrum) is inactive: 0. Also, in the assay on ReNCell VM [2] (library: Spectrum), the “dopaminergic neuron differentiation score” value was inactive: 0.
Regarding `CN1C[C@H](O)[C@@H](O)[C@H](O)[C@H]1CO` [N-Methyl-1-deoxynojirimycin], in the assay with ReNCell VM [1] (library: LOPAC), the neuronal differentiation score was inactive: 0. Moreover, the “dopaminergic neuron differentiation score” value in the assay with ReNCell VM [2] (library: LOPAC) was inactive: 0.
Turning to `CN1CCCCC1CCN1c2ccccc2Sc2ccc([S+](C)[O-])cc21` (stereo not given), the neuronal differentiation score with ReNCell VM [1] (library: Spectrum) was inactive: 0. In addition, the “dopaminergic neuron differentiation score” value in the assay with ReNCell VM [2] (library: Spectrum) is inactive: 0.
For the compound `COc1ccc(CC(C)NCC(O)c2ccc(O)c(NC=O)c2)cc1` (stereo not given) [Formoterol hemifumarate], in the assay with ReNCell VM [1] (library: Tocriscreen), the neuronal differentiation score was inactive: 0. For the same compound, the “dopaminergic neuron differentiation score” value with ReNCell VM [2] (library: Tocriscreen) was inactive: 0.
With `Cc1cc(NS(=O)(=O)c2ccc(N)cc2)no1`, in the assay on ReNCell VM [1] (library: Spectrum), the neuronal differentiation score is inactive: 1. Also, the “dopaminergic neuron differentiation score” value with ReNCell VM [2] (library: Spectrum) was inactive: 0.
Take `Cc1ncc([N+](=O)[O-])n1CCO`: the neuronal differentiation score with ReNCell VM [1] (library: Spectrum) was inactive: 1. For the same compound, the “dopaminergic neuron differentiation score” value in the assay on ReNCell VM [2] (library: Spectrum) was inactive: 0.
As to `N#C/C(=C\c1ccc(O)c(O)c1)C(=O)Nc1ccccc1`, the neuronal differentiation score in the assay with ReNCell VM [1] (library: Tocriscreen) was inactive: 0. Further, the “dopaminergic neuron differentiation score” value with ReNCell VM [2] (library: Tocriscreen) is inactive: 1.
On to `CCCCCN(CCCCC)C(=O)C(CCC(=O)O)NC(=O)c1ccc(Cl)c(Cl)c1` (stereo not given) [Lorglumide sodium salt], for which the neuronal differentiation score with ReNCell VM [1] (library: Prestwick) was inactive: 0. For the same compound, in the assay on ReNCell VM [2] (library: Prestwick), the “dopaminergic neuron differentiation score” value was inactive: 0.
